Experimental data reported in article PMC7794802, “The Interactome of Cancer-Related Lysyl Oxidase and Lysyl Oxidase-Like Proteins” (Cancers, 2020).
These are yes or no findings as the source states them, for the method shown. Some entries that bind do so weakly or less than the wild type.

Amino acid sequences for entries named in this document (tags omitted). Residues count along the entry.
UniProt Q9UMD9, residues 489-1497: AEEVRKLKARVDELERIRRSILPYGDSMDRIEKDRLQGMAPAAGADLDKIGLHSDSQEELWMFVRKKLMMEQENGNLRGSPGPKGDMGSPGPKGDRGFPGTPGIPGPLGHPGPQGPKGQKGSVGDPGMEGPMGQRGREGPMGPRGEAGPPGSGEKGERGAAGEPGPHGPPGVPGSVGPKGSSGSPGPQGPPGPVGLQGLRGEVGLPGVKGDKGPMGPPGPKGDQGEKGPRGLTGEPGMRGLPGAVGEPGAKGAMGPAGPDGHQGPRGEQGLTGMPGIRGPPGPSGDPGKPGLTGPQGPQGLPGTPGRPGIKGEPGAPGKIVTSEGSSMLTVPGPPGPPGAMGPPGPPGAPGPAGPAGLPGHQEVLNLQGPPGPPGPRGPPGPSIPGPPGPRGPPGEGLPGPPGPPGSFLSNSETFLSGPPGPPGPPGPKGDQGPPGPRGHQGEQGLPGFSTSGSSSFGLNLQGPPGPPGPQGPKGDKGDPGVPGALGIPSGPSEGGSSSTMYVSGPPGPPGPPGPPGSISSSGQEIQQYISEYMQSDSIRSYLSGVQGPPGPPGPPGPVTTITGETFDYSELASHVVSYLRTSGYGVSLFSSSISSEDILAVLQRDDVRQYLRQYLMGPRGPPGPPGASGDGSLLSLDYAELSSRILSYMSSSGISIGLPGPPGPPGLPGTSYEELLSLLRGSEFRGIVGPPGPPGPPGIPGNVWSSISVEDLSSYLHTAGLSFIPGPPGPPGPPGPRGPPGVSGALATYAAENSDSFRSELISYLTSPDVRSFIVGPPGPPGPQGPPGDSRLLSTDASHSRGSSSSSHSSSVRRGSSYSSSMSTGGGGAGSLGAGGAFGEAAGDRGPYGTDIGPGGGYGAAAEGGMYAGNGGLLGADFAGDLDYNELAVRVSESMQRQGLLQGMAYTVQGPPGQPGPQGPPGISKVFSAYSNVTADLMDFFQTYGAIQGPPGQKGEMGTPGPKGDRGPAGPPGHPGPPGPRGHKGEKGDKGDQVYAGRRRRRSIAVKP
UniProt P39060, residues 1572-1754: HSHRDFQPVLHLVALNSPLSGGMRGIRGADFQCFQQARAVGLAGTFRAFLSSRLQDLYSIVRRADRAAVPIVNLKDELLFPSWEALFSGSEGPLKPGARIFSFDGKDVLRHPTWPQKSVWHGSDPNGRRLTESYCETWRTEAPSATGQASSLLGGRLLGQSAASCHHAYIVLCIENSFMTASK
UniProt Q5TAT6, residues 62-717: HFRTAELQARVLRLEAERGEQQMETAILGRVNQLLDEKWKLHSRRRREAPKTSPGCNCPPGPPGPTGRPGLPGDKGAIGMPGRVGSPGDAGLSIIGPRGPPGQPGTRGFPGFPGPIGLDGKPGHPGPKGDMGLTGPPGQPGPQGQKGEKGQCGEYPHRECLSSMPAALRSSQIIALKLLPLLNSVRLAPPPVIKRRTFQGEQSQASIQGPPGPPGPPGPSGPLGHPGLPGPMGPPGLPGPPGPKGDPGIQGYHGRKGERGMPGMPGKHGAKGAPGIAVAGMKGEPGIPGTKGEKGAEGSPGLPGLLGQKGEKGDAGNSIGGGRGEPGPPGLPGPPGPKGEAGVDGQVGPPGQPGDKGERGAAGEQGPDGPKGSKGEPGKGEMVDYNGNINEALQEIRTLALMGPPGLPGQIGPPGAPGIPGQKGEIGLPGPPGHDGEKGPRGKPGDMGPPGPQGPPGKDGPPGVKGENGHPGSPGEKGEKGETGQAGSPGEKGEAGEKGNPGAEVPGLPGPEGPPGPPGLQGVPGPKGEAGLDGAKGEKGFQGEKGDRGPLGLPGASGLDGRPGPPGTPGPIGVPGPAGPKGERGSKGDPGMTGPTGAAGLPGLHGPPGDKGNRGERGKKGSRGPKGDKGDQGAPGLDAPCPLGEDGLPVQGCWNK

Columns and labels:
SPARC = target: T1, SPARC (UniProt P09486 18-303); test: SPR; SPR imaging, BIAcore Flexchip; proteins spotted in triplicate (physically adsorbed) on Gold Affinity chips, blocked with buffer containing mammalian proteins; LOXL2, SRCR 1-2 and SRCR 1-4 (500 nM) recirculated over the arrays for 20 min; both purified
T1 construct: SPARC; also called immobilized SPARC
T1 sequence (looked up): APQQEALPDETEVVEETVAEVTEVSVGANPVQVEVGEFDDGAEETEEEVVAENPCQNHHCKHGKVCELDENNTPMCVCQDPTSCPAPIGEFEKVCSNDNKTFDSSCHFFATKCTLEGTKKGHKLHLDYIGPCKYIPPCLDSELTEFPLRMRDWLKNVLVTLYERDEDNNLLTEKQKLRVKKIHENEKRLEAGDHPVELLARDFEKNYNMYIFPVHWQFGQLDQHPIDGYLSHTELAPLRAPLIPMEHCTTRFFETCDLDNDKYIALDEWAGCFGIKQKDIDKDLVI

[1] = target: T2, angiopoietin-related protein 4 (ANGPTL4) (UniProt Q9BY76); test: as above
T2 sequence: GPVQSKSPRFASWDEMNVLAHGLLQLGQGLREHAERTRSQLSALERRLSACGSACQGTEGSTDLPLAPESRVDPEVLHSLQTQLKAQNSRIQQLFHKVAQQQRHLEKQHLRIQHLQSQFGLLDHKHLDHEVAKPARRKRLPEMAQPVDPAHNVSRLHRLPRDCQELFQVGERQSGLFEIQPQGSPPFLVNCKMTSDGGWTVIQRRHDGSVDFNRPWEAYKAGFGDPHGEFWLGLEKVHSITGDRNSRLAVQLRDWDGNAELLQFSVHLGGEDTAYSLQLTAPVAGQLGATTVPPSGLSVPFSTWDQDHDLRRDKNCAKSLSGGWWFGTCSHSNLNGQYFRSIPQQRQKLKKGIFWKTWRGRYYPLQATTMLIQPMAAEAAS

[2] = target: lysyl oxidase-like 2 (LOXL2), full-length recombinant protein (UniProt Q9Y4K0); test: SPR; BIAcore T100; LOXL2 covalently immobilised on a CM5 sensor chip via primary amino groups; ectodomain of human collagen XIII injected at different concentrations at 30 µL/min for 180 s; both purified
[3] = target: ectodomain of human collagen XVII (human) (UniProt Q9UMD9); test: SPR; BIAcore T100; ligands covalently immobilised by amine coupling on CM5 or CM3 (collagen XVII) sensor chips; LOXL2, SRCR 1-2 and SRCR 1-4 injected in 10 mM Hepes pH 7.4, 150 mM NaCl, 0.05% P20; both purified
endostatin = endostatin (UniProt P39060); test: SPR; SPR imaging, BIAcore Flexchip; proteins spotted in triplicate (physically adsorbed) on Gold Affinity chips, blocked with buffer containing mammalian proteins; LOXL2, SRCR 1-2 and SRCR 1-4 (500 nM) recirculated over the arrays for 20 min; both purified

| Molecule | binding (SPARC) | binding [1] | binding [2] | binding [3] | binding (endostatin) |
| --- | --- | --- | --- | --- | --- |
| LOXL2 N-terminal scavenger receptor cysteine-rich domains SRCR 1-4 (residues 58-544) (from UniProt Q9Y4K0 58-544) (domain or fragment) | binds | binds |  |  |  |
| ectodomain of human collagen XIII (from UniProt Q5TAT6 62-717) (domain or fragment) |  |  | binds |  |  |
| LOXL2 N-terminal scavenger receptor cysteine-rich domains SRCR 1-2 (residues 58-302) (domain or fragment, UniProt Q9Y4K0 58-302, looked up, LOXL2, SRCR domains 1-2, residues 58-302; also called SRCR 1-2 domain; source: expressed as recombinant protein as previously described [62]) LRLAGQKRKHSEGRVEVYYDGQWGTVCDDDFSIHAAHVVCRELGYVEAKSWTASSSYGKGEGPIWLDNLHCTGNEATLAACTSNGWGVTDCKHTEDVGVVCSDKRIPGFKFDNSLINQIENLNIQVEDIRIRAILSTYRKRTPVMEGYVEVKEGKTWKQICDKHWTAKNSRVVCGMFGFPGERTYNTKVYKMFASRRKQRYWPFSMDCTGTEAHISSCKLGPQVSLDPMKNVTCENGLPAVVSCV | binds | binds |  |  |  |
| lysyl oxidase-like 2 (LOXL2), full-length recombinant protein (enzyme, UniProt Q9Y4K0 26-774, looked up, lysyl oxidase-like 2 (LOXL2), full-length recombinant protein made in the laboratory; As a secreted recombinant protein it probably lacks its signal peptide (surmise); also called full-length LOXL2; soluble LOXL2; source: expressed as recombinant protein as previously described [62]) QYDSWPHYPEYFQQPAPEYHQPQAPANVAKIQLRLAGQKRKHSEGRVEVYYDGQWGTVCDDDFSIHAAHVVCRELGYVEAKSWTASSSYGKGEGPIWLDNLHCTGNEATLAACTSNGWGVTDCKHTEDVGVVCSDKRIPGFKFDNSLINQIENLNIQVEDIRIRAILSTYRKRTPVMEGYVEVKEGKTWKQICDKHWTAKNSRVVCGMFGFPGERTYNTKVYKMFASRRKQRYWPFSMDCTGTEAHISSCKLGPQVSLDPMKNVTCENGLPAVVSCVPGQVFSPDGPSRFRKAYKPEQPLVRLRGGAYIGEGRVEVLKNGEWGTVCDDKWDLVSASVVCRELGFGSAKEAVTGSRLGQGIGPIHLNEIQCTGNEKSIIDCKFNAESQGCNHEEDAGVRCNTPAMGLQKKLRLNGGRNPYEGRVEVLVERNGSLVWGMVCGQNWGIVEAMVVCRQLGLGFASNAFQETWYWHGDVNSNKVVMSGVKCSGTELSLAHCRHDGEDVACPQGGVQYGAGVACSETAPDLVLNAEMVQQTTYLEDRPMFMLQCAMEENCLSASAAQTDPTTGYRRLLRFSSQIHNNGQSDFRPKNGRHAWIWHDCHRHYHSMEVFTHYDLLNLNGTKVAEGHKASFCLEDTECEGDIQKNYECANFGDQGITMGCWDMYRHDIDCQWVDITDVPPGDYLFQVVINPNFEVAESDYSNNIMKCRSRYDGHRIWMYNCHIGGSFSEETEKKFEHFSGLLNNQLSPQ |  | no binding (tested: 500 nM) |  | binds | binds |
